Measured values taken from the supplement of paper PMC10849652.
Some of the results follow.

Amino acid sequences for entries named in this document (tags omitted). A change or cut given only in a name is not applied to a line headed by its entry.
UniProt Q99543: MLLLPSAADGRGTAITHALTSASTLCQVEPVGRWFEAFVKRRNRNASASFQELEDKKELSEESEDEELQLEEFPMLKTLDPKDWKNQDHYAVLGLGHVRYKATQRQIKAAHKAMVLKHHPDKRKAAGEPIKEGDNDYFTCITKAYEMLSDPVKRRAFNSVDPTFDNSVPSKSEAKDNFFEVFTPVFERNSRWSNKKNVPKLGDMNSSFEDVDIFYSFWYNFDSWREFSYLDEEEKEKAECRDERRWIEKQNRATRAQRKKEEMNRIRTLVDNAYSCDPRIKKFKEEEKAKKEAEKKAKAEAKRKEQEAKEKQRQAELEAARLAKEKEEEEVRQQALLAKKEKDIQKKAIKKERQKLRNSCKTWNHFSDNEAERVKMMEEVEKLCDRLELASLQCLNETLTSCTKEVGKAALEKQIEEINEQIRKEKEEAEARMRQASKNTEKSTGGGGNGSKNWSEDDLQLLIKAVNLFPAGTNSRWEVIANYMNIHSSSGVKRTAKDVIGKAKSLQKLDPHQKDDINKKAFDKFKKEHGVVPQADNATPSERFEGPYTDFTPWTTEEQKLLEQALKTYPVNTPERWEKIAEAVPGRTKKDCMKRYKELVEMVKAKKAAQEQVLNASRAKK
UniProt P55039: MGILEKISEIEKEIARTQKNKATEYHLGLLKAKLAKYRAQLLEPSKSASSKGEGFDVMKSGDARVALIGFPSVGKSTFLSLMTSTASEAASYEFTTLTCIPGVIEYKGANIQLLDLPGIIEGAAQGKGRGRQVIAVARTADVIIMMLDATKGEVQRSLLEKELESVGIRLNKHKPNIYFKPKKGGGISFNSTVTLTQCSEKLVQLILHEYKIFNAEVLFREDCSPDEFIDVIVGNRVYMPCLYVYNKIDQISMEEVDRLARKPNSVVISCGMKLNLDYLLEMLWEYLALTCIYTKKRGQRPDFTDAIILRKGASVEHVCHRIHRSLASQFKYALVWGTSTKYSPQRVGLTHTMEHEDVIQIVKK
UniProt Q5SXM8: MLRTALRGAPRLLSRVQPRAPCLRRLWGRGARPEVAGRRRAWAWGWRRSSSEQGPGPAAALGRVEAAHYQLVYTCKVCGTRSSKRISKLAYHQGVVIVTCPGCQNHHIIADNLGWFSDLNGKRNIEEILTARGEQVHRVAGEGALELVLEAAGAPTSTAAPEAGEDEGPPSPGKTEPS
UniProt Q16254: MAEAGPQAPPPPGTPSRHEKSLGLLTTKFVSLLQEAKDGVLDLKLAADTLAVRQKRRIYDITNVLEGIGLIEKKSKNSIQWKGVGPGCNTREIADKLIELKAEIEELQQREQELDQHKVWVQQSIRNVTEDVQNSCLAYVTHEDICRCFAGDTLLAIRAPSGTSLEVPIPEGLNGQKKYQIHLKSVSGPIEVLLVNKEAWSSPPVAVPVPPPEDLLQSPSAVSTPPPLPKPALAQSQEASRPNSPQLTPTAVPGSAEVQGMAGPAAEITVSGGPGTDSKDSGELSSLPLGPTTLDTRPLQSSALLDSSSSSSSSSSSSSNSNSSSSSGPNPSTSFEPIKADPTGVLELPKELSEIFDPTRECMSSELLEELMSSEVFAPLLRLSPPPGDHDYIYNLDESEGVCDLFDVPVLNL
UniProt O00559: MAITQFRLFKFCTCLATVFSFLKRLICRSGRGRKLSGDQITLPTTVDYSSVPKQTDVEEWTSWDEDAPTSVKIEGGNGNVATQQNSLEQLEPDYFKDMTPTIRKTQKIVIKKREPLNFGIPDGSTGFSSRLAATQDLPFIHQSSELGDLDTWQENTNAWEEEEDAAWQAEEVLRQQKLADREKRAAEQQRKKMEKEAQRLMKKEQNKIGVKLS
UniProt Q15075: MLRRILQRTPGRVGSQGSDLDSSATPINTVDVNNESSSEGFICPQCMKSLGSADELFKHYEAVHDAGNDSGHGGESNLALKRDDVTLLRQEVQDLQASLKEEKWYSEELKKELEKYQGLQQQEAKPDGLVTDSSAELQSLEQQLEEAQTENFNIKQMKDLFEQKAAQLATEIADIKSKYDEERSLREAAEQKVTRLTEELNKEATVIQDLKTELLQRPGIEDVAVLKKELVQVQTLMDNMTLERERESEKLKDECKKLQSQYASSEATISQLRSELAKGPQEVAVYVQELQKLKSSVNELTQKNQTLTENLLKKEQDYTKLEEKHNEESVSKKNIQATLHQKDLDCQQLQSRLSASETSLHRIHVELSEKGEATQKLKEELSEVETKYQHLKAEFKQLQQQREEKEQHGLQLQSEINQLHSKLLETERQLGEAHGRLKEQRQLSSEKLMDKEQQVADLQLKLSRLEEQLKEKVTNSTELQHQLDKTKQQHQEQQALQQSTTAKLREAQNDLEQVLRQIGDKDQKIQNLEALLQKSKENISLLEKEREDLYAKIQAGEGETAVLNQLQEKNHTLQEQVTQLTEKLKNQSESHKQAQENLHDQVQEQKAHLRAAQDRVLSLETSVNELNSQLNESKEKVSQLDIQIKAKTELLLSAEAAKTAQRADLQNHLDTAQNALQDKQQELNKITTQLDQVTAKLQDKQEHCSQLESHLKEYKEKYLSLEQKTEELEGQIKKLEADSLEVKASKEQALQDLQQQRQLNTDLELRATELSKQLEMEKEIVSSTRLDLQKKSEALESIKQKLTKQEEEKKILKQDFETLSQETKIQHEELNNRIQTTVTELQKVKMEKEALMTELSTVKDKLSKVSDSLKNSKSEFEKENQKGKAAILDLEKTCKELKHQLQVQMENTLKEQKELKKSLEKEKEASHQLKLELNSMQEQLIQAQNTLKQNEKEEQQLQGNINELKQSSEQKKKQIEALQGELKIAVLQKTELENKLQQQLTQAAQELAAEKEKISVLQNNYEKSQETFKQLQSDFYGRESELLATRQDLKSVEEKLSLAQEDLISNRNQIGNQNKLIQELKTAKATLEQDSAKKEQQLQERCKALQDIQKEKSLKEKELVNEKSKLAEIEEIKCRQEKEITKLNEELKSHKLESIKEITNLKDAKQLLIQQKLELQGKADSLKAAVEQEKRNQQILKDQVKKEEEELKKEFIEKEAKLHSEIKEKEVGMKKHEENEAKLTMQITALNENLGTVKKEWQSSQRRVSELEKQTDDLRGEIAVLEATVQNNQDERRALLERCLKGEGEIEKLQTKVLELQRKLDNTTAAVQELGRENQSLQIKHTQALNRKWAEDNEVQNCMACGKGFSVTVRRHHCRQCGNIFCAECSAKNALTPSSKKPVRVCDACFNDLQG
UniProt Q9NP97, whole entry, looked up: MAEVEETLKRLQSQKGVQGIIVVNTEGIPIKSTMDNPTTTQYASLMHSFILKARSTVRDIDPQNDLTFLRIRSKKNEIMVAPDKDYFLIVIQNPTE
UniProt Q7L8W6: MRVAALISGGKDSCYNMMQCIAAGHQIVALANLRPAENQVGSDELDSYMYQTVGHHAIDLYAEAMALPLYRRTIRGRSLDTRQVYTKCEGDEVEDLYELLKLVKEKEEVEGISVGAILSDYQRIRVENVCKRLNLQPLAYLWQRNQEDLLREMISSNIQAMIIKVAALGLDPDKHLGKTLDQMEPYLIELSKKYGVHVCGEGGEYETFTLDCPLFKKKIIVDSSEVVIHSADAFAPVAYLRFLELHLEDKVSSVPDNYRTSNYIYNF
UniProt Q6XUX3: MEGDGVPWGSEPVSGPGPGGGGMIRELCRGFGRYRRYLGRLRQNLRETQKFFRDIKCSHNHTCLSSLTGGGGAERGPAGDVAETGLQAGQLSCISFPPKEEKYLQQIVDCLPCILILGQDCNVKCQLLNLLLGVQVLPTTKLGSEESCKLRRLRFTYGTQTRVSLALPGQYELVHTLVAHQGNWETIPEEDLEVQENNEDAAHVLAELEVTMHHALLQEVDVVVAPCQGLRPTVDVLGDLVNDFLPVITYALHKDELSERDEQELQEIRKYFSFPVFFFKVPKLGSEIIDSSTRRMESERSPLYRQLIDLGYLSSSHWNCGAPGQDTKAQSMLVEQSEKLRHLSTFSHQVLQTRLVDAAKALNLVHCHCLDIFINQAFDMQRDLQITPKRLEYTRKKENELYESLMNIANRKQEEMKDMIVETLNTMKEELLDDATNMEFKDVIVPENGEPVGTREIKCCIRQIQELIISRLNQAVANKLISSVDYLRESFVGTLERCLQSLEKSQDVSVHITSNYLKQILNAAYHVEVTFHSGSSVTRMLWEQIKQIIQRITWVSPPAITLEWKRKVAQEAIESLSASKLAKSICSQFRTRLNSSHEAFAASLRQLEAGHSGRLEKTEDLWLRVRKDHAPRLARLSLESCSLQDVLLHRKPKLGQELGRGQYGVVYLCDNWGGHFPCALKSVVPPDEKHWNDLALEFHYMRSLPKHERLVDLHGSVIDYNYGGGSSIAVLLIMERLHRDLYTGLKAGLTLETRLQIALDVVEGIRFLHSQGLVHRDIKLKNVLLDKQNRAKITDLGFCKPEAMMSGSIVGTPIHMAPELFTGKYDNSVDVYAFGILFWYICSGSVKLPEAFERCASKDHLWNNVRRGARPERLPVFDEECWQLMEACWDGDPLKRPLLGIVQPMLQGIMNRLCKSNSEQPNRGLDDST
UniProt Q9P2X0: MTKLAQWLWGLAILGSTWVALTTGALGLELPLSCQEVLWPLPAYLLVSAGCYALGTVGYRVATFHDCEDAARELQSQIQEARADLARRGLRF
UniProt O43237, whole entry, looked up: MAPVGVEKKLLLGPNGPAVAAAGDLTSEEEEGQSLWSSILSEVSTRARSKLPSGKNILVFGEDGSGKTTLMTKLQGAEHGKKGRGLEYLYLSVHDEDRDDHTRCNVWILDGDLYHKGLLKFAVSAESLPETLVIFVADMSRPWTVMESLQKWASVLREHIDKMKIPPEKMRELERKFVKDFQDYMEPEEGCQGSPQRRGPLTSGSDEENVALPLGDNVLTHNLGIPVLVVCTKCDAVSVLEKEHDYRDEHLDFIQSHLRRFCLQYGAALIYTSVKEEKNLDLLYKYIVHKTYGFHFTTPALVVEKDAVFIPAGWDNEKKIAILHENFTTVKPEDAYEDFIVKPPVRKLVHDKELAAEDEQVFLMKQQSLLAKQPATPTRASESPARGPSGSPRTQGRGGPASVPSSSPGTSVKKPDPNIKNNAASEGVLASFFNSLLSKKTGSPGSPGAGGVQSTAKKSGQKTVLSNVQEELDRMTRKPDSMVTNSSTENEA
UniProt Q8NBA8: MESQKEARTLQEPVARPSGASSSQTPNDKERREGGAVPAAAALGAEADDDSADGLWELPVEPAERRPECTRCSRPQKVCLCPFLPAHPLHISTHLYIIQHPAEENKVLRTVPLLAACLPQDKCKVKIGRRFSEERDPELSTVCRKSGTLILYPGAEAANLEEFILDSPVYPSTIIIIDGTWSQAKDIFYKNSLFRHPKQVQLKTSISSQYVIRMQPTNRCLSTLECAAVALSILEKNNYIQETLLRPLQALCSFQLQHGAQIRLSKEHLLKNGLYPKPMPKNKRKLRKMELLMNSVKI
UniProt Q9H3H5: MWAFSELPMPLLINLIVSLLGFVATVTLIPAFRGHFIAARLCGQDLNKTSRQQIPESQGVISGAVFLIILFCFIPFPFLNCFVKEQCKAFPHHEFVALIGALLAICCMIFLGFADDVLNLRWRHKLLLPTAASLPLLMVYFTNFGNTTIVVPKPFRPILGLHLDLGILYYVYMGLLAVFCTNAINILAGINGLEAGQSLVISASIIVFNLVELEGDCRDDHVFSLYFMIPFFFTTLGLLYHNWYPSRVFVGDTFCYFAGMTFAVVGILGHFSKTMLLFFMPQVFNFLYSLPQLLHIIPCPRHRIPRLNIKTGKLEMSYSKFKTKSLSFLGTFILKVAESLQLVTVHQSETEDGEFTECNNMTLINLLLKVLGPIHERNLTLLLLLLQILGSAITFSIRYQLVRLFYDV
UniProt Q5QJE6: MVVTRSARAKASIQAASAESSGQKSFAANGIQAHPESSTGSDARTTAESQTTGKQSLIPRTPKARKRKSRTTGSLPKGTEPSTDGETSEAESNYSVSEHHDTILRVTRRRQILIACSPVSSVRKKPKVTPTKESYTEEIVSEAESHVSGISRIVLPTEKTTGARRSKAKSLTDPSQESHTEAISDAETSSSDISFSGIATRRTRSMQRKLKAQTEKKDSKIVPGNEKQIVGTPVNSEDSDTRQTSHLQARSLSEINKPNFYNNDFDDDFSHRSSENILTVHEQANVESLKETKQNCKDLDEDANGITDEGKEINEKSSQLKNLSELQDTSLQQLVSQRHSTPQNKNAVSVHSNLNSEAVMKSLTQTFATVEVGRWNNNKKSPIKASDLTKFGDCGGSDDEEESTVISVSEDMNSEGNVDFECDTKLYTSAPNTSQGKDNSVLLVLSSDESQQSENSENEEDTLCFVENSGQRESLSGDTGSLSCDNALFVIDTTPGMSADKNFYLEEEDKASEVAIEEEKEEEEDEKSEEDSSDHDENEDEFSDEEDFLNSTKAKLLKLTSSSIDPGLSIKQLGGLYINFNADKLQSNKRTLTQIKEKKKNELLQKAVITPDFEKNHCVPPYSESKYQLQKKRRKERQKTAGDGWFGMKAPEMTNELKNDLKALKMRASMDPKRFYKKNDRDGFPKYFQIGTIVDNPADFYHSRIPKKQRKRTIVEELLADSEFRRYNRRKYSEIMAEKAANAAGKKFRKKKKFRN

Legend:
Assay in all cases: log2 fold change, soluble protein after heating vs DMSO (PISA); higher = thermal stabilisation; K562 cells, 10 uM, 30 min; active = over 0.2 and 3.5 SD of the protein, either way, in both replicates (recomputed)
[1] = compound: C1=CC=C(C=C1)[C@H](COC2=CC3=C(C=C2)NC(=O)N3)NC(=O)C4=CC=CN(C4=O)CC5=CC(=C(C=C5)F)F
Method in brief: (§1)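 K562 cells at 2×10^6 cells/mL were given 10 μM compound for 30 min. Aliquots then went through 3 min of heating across 48°C-58°C, were pooled, and were extracted in PBS with 0.5% NP-40 at 4°C, and the supernatant after 21,000xg for 90 min was quantified by TMTpro 16plex LC-MS/MS with channel sums equalised. Thermal stability relative to control samples, from duplicates, is given as log2 fold change.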

[2] = compound: CC1=C(SC2=C1C(=N[C@H](C3=NN=C(N32)C)CC(=O)N)C4=CC=C(C=C4)Cl)C
Method in brief: as §1

[3] = compound: CC1=C2C(=CC=C1)N=C(N(C2=O)C3=CC=CC=C3C)CN4C=NC5=C(N=CN=C54)N
Method in brief: as §1

[4] = compound: Cc1sc2c(c1C)C(c1ccc(Cl)cc1)=N[C@@H](CC(=O)OC(C)(C)C)c1nnc(C)n1-2
Method in brief: as §1

[5] = compound: c1ccc([C@@H]2C[C@H]2NC2CCNCC2)cc1
Method in brief: as §1

Measured: log2 fold change

DNAJC2 (UniProt Q99543)
inactive: [1] -0.093 | [2] 0.006 | [3] 0.017 | [4] 0.106 | [5] -0.086

DRG2 (UniProt P55039)
inactive: [1] 0.002 | [2] 0.073 | [3] 0.102 | [4] -0.024 | [5] -0.023

DNLZ (UniProt Q5SXM8)
inactive: [1] 0.053 | [2] 0.05 | [3] -0.014 | [4] 0.004 | [5] 0.023

DTD1 (UniProt Q8TEA8)
inactive: [1] 0.036 | [2] -0.032 | [3] 0.046 | [4] -0.033 | [5] 0.018

E2F4 (UniProt Q16254)
inactive: [1] 0.006 | [2] 0.039 | [3] 0.098 | [4] 0.022 | [5] -0.001

DPP8 (UniProt Q6V1X1)
inactive: [1] -0.112 | [2] 0.029 | [3] 0.145 | [4] -0.033 | [5] 0.005

DXO (UniProt O77932)
inactive: [1] -0.116 | [2] 0.024 | [3] -0.066 | [4] -0.169 | [5] -0.048

EBAG9 isoform 2 (UniProt O00559)
inactive: [1] 0.075 | [2] 0.077 | [3] 0.058 | [4] -0.058 | [5] 0.06

EEA1 (UniProt Q15075)
inactive: [1] 0.022 | [2] -0.015 | [3] 0.011 | [4] 0.021 | [5] 0.038

DYNLRB1 (UniProt Q9NP97)
inactive: [1] -0.006 | [2] 0.178 | [3] 0.037 | [4] -0.113 | [5] 0

DPH6 (UniProt Q7L8W6)
inactive: [1] -0.001 | [2] -0.017 | [3] 0.126 | [4] 0.003 | [5] -0.076

DSTYK (UniProt Q6XUX3)
inactive: [1] -0.042 | [2] 0.036 | [3] 0.022 | [4] 0.017 | [5] -0.088

DPM3 isoform 2 (UniProt Q9P2X0)
inactive: [1] 0.046 | [2] 0.027 | [3] 0.091 | [4] -0.137 | [5] -0.041

DNM1L isoform 2 (UniProt O00429)
inactive: [1] -0.138 | [2] -0.106 | [3] 0.012 | [4] 0 | [5] 0.015

EDC4 (UniProt Q6P2E9)
inactive: [1] 0.02 | [2] -0.004 | [3] 0.075 | [4] 0.023 | [5] 0.024

DYNC1LI2 (UniProt O43237)
inactive: [1] -0.04 | [2] -0.071 | [3] 0.035 | [4] -0.028 | [5] 0.013

Pulled one by one from the entries so far, 2 records:
EDC4 (UniProt Q6P2E9)
inactive: [1] 0.02 | [2] -0.004 | [3] 0.075 | [4] 0.023 | [5] 0.024

DNM1L isoform 2 (UniProt O00429)
inactive: [1] -0.138 | [2] -0.106 | [3] 0.012 | [4] 0 | [5] 0.015

(continued)

DTWD2 (UniProt Q8NBA8)
inactive: [1] -0.011 | [2] 0.125 | [3] 0.064 | [4] 0.043 | [5] -0.036

DPAGT1 (UniProt Q9H3H5)
inactive: [1] -0.027 | [2] -0.009 | [3] -0.072 | [4] -0.084 | [5] 0.016

DPYSL2 (UniProt Q16555)
inactive: [1] -0.012 | [2] 0.072 | [3] 0.093 | [4] 0.01 | [5] 0.014

E4F1 (UniProt Q66K89)
inactive: [1] 0.11 | [2] 0.331 | [3] -0.217 | [4] 0.17 | [5] 0.072

DYRK1A isoform 2 (UniProt Q13627)
inactive: [1] -0.062 | [2] 0.059 | [3] 0.085 | [4] 0.026 | [5] 0.011

DNAJC6 isoform 2 (UniProt O75061)
inactive: [1] 0 | [2] 0.038 | [3] 0.062 | [4] -0.016 | [5] 0.034

DNTTIP2 (UniProt Q5QJE6)
inactive: [1] -0.068 | [2] -0.117 | [3] -0.021 | [4] 0.087 | [5] 0.132

DPH2 (UniProt Q9BQC3)
inactive: [1] -0.006 | [2] 0.024 | [3] 0.021 | [4] -0.004 | [5] -0.031
